According to PMC7282624:
Results are given in words; binding and its absence hold for the method and conditions named. Binding seen in cells or lysates may run through a third protein. Some binding calls cover weakened binding; strength is not graded here. Sequences can lack the tags named with a protein.

Amino acid sequences for entries named in this document (tags omitted).
UniProt P14635: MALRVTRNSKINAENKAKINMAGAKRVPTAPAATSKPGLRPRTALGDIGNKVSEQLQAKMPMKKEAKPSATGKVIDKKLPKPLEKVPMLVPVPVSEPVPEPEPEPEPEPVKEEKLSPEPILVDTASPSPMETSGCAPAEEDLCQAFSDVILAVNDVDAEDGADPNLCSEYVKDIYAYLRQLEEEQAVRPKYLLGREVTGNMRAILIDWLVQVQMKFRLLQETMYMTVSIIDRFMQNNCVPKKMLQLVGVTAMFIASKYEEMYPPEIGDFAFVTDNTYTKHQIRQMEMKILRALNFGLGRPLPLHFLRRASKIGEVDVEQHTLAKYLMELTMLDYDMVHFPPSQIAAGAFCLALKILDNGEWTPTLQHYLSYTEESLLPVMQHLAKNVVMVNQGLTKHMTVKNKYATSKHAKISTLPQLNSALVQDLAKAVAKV

Molecular target: T1, FLAG-tagged ATG13 (ATG13-3FLAG) (human) (UniProt O75143)
T1 sequence: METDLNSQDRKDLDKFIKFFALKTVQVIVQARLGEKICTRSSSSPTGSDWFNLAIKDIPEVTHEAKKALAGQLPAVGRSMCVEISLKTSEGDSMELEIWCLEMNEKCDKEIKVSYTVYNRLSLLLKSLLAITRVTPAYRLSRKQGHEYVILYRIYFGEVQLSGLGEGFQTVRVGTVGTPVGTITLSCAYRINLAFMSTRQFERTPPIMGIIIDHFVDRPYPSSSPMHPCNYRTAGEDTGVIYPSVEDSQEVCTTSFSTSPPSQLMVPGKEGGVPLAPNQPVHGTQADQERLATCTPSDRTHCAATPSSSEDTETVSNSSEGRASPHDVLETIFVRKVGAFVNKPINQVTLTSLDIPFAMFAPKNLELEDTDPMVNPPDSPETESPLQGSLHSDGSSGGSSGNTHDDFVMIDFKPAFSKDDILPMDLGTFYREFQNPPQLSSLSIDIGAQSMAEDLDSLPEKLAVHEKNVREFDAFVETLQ
Assay: co-IP; anti-FLAG antibody on Protein G Dynabeads, 4 °C 12 hours, M-PER lysates of HEK-293T cells stably expressing the FLAG-tagged bait; cells asynchronous or synchronized by single-thymidine with or without nocodazole (some treated with RO-3306); western blot

- binding: binds
Substance: cyclin B1, endogenous (from UniProt P14635 1-433)
